Drawing on publication PMC6479716, this text covers binding for two molecules.

These are yes or no findings as the source states them, for the method shown. A result given as binding can be weak or reduced; the word gives no strength. Sequences can lack the tags named with a protein.

Assay [1] concerns the target T1, AEDANS labelled untagged lettuce eIF4E deleted from its first 46 N-ter amino acids (lettuce (Lactuca sativa cultivar Salinas)).
T1 sequence (chain, AEDANS on cysteines (mean of 1.7 AEDANS moieties per molecule)): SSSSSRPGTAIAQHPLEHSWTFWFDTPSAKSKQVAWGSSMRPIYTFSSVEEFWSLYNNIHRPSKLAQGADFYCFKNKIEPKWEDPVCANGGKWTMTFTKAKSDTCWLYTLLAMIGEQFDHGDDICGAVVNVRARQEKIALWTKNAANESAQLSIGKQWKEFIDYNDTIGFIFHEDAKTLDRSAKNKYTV
As to the kind of experiment: other fluorescence titration; decrease of the steady state intrinsic tryptophan fluorescence of eIF4E on titration by VPg; 25 °C, 20 mM HEPES pH 7.5, 0.25 mM NaCl, 1 mM DTT; both purified.

Assay [2] has as its target T2, N-ter hexahistidine tagged lettuce eIF4E (lettuce (Lactuca sativa cultivar Salinas)).
T2 sequence: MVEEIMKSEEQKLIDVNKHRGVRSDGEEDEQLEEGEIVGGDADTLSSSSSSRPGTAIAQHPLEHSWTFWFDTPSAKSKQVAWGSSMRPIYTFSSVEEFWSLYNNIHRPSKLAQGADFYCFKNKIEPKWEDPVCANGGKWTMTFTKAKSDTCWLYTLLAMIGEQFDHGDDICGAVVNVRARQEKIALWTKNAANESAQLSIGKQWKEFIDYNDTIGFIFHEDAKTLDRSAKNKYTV
The description is as above.

In assay [3] the target is T3, untagged full length lettuce eIF4E (lettuce (Lactuca sativa cultivar Salinas)).
T3 sequence: T2 sequence
The assay is described as above.

Assay [4] has as its target T4, untagged lettuce eIF4E deleted from its first 46 N-ter amino acid (lettuce (Lactuca sativa cultivar Salinas)).
T4 sequence: T1 sequence (chain, AEDANS on cysteines (mean of 1.7 AEDANS moieties per molecule))
Described as above.

Assay [5] deals with N-ter hexahistidine tagged LMV VPg (Lettuce mosaic virus (isolate AF199)). As to the kind of experiment: SEC; Superose 12 HR 10/30, 20 mM HEPES/KOH, 0.4 M KCl, 1.4 mM 2-mercaptoethanol, 0.5 mL/min; monomers run alone (1 mL of 0.7-1 mg/mL); complex pre-formed from His6 eIF4E 0.7 mg/mL and an excess of His6 VPg 1.2 mg/mL; fractions analysed by SDS-PAGE; both purified. A general note: Size exclusion chromatography separates by hydrodynamic size, large species first.

With “LMV VPg as used in the intrinsic fluorescence titrations of Figure S3 (Lettuce mosaic virus (isolate AF199))”, the binding result in assay [1], in assay [2], in assay [3] and in assay [4] was “binds” throughout.

B1: N-ter hexahistidine tagged lettuce eIF4E (protein, UniProt A0A2J6L8Y7 1-235)
chain: T2 sequence
With B1, in assay [5], the binding entry is on record as “binds”.
